Measured values taken from US10112978B2, “Peptide and use thereof” (OSAKA UNIVERSITY, priority 2014, dated 2018).
Some results were stated once for a whole list of compounds, not compound by compound.

How the values were obtained:
[1] = system: Human hair follicle dermal papilla cells; assay: Production of growth factors (KGF, HGF, VEGF) by hair follicle dermal papilla cells (ELISA); type: cell-based; conditions: 5 days
Experimental: Human hair follicle dermal papilla cells in DMEM medium containing 10% FBS were seeded at 3×10^4 cells/well on a 24-well plate and cultured in a CO2 incubator overnight. On the following day, the medium was removed, test peptide solutions in DMEM medium containing 1% FBS were added to the plate, and the cells were cultured in a CO2 incubator for 5 days. The culture supernatant was harvested, and the KGF, HGF and VEGF concentrations in the culture supernatant were measured by ELISA.
In this experiment, OSK-1 and AAP-11 were used as the test peptides, and the concentrations of KGF, HGF and VEGF were measured in the same manner as in Example 9.

THP-1 cells = assay: CD86 and CD54 expression in THP-1 cells (flow cytometry, RFI); type: cell-based, human; conditions: overnight culture, relative fluorescence intensity
Experimental: THP-1 cells were seeded at a density of 2.0×10^5 cells/mL in 50 mL of RPMI1640 medium containing 10% FBS and 0.05 mM mercaptoethanol in a 75-cm^2 flask, and precultured for 48 hours.
The precultured THP-1 cells were harvested by centrifugation and suspended at 2.0×10^6 cells/mL in RPMI1640 medium containing 10% FBS and 0.05 mM mercaptoethanol, and the cell suspension was added to a 24-well plate at 500 μL/well. Test peptides were separately dissolved in the same medium as above, and 500 μL of each of the solutions was added to separate wells containing the cell suspension.
After overnight culture, the cells were harvested by centrifugation and washed twice with PBS containing 0.1% BSA (FACS buffer). The cells were then dispersed in 600 μL of FACS buffer containing 0.01% human γ-globulin solution (Sigma, G2388), and incubated at 4° C. for 10 minutes for blocking of Fc receptors.
After that, the cell suspension was divided into three 180-μL aliquots in 1.5-mL tubes, the tubes were centrifuged, and the cell pellets were prepared for the reaction with antibodies. To the cell pellets, FITC-labeled antibody solutions separately diluted to appropriate concentrations in FACS buffer were added in a volume of 50 μL, and incubation was performed at 4° C. for 30 minutes. The antibodies used were CD86 antibody (Pharmingen; Cat#555657), CD54 antibody (Dako; Cat# F7143) and isotype control (Mouse IgG) antibody (Dako; Cat#X0927). After the 30-minute incubation, the cells were harvested by centrifugation and washed twice with FACS buffer. The cells harvested by centrifugation were dispersed in 200 μL of FACS buffer containing 0.625 μg/mL propidium iodide, and the expression levels of the cell surface antigens on 1×10^4 viable cells were measured by flow cytometry. Forward and side scatter gating was not used for the analysis, and the relative fluorescence intensity (RFI) was calculated from the measured mean fluorescence intensities (MFI) by the following formula. […]
When the viability of the non-treated control cells (vehicle treatment cells) was 90% or more, the test was considered valid. In the case where the cell viability at a particular sample concentration used in the test was lower than 50%, the data of the CD54 level at the concentration was excluded from the evaluation.

Sequence | production of the growth factors (KGF, HGF and VEGF concentrations in the culture supernatant) [1] | expression of CD54 (THP-1 cells) | expression of CD86 (THP-1 cells)
ELKLIFLHRLKRLRKRLK [AAP-1, two C-terminal amino acids of OSK-1 deleted] | promoted the production of the indicated growth factors in a concentration dependent manner | no considerable reduction in the activity was observed | no considerable reduction in the activity was observed
ELKLIFLHRLKRLRKRLKRK (N-acetyl, C-terminal amide) [OSK-1] | promoted the production of the indicated growth factors in a concentration dependent manner | – | –
KLIFLHRLKRLRKRLK [AAP-5] | promoted the production of the indicated growth factors in a concentration dependent manner | no considerable reduction in the activity was observed | no considerable reduction in the activity was observed
LIFLHRLKRLRKRL [AAP-6] | promoted the production of the indicated growth factors in a concentration dependent manner | – | –
LKLIFLHRLKRLRKRLKR [AAP-4] | promoted the production of the indicated growth factors in a concentration dependent manner | no considerable reduction in the activity was observed | no considerable reduction in the activity was observed
